Laboratory results: PMC3708934
These are yes or no findings as the source states them, for the method shown. Binding seen in cells or lysates may run through a third protein. Some entries that bind do so weakly or less than the wild type.

Amino acid sequences for entries named in this document (tags omitted). A change or cut given only in a name is not applied to a line headed by its entry. Chains listed by the source or under a name are the forms on record and can include a tag or linker.
UniProt Q9Y3Z3: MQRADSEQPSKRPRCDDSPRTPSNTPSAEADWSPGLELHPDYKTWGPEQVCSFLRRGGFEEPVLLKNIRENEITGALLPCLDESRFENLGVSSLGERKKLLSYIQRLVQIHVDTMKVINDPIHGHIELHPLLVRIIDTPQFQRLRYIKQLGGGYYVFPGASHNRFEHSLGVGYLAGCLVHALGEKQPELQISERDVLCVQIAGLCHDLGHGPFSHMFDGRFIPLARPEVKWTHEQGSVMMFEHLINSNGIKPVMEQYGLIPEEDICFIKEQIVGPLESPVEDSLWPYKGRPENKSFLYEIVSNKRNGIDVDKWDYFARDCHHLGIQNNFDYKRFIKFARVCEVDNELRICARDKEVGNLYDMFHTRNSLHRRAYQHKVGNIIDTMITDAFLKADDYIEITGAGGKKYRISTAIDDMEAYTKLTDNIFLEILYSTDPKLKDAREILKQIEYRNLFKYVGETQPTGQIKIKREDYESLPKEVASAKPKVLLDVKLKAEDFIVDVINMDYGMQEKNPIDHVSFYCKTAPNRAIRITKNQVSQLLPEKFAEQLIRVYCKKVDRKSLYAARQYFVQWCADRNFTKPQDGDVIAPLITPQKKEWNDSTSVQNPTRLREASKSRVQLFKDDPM
SAMHD1 Δ2–109-HA (Q9Y3Z3, form named): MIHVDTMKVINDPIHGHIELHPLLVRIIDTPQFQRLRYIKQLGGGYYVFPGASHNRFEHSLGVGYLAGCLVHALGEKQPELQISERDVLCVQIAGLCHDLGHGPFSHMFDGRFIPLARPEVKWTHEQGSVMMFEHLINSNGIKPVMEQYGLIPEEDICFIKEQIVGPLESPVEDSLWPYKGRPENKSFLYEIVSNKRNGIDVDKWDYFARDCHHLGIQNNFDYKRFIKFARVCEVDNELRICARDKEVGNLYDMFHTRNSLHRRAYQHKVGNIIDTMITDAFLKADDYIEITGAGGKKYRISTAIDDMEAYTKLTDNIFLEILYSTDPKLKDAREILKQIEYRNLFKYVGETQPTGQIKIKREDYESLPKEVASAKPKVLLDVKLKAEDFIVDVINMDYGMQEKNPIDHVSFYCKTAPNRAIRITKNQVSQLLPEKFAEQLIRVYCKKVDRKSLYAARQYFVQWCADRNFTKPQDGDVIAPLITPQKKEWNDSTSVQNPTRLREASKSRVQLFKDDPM
UniProt Q14974: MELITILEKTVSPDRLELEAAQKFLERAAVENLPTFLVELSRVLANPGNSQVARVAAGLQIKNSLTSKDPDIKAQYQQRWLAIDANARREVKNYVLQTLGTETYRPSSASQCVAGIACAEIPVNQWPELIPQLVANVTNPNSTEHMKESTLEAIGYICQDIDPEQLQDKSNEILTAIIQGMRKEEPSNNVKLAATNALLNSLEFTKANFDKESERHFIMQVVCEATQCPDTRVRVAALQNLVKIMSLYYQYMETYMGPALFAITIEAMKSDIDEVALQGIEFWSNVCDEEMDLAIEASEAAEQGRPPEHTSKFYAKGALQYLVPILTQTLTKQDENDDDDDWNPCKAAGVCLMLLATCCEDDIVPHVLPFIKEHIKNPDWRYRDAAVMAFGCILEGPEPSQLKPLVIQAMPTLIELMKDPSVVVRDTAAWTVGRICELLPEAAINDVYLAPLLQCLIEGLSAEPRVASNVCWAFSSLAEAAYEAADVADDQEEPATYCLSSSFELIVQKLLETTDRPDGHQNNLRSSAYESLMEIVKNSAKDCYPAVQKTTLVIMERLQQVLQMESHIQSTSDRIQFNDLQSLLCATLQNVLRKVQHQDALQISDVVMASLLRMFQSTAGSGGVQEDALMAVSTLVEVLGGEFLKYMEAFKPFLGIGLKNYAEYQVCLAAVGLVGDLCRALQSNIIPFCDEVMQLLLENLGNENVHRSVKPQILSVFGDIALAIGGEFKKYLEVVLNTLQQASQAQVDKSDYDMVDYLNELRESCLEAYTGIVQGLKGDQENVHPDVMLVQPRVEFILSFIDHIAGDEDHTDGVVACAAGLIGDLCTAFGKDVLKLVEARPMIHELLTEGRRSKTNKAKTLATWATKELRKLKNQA

Key:
Assay in all cases: co-IP; SAMHD1-HA WT or mutants transfected into HEK293T; lysates 48 h after transfection precipitated with anti-HA affinity matrix; endogenous KPNB1 detected by immunoblot with anti-KPNB1
[1] = target: SAMHD1 Δ2–109-HA (human) (UniProt Q9Y3Z3)
[2] = target: SAMHD1 K11A-HA (human) (UniProt Q9Y3Z3)
[3] = target: wild-type SAMHD1-HA (sterile alpha motif and HD domain-containing protein-1) (human) (UniProt Q9Y3Z3)

Measured: binding

karyopherin-β1 (KPNB1) (from UniProt Q14974 1-876)
binds: all assays above
